Reference: PubChem BioAssay AID504804 (Drosophila RNAi Screening Center, 2011)

Assay: 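Fly genes whose loss lessens doxorubicin-driven cell death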 (primary screen)
System: Drosophila Kc cells
Reagents: long dsRNA against Drosophila genes, 0.5 µg dsRNA per well
Timing: 96 h (48 h knock-down, then 48 h drug)
Conditions: doxorubicin 5 µg/ml for 48 h, added 48 h after dsRNA
Measured: 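Viability measured as cellular ATP by luminescence after 48 h knock-down then 48 h doxorubicin at 5 µg/ml; unnormalised plate counts for each replicate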
Direction: raw ATP luminescence: higher = more viable cells, protection from doxorubicin
Call rule: 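Active when both duplicate wells lie at least 2 SD above the plate mean and protection is confirmed by rescreening and independent dsRNAs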
The deposit covers about 19,000 reagents; shown is a random part of those that have a named target and a result. Of all reagents, 47 (0.25%) were called active. 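Signals are raw, not normalised; exact z-scores behind calls not deposited; actives needed confirmation, so some wells reaching 2 SD are inactive.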 Unmarked entries are inactive. A plus sign joins genes that one reagent is predicted to hit.

predicted target	dsRNA	raw ATP luminescence, replicate 1	raw ATP luminescence, replicate 2
CG8641	DRSC11028	67167	82193
CG6972	DRSC16159	60800	57790
CG5421	DRSC02858	62807	71453
mew	DRSC18971	1.89e5	2.40e5
mew	DRSC20352	3.75e5	3.44e5
CG31342	DRSC15349	45677	25343
CG31342	DRSC16246	1.29e5	89560
CG15021	DRSC08475	83147	77107
CG31683 + CG18858	DRSC02703	67700	64053
CG12725	DRSC19501	2.30e5	3.02e5
EndoA	DRSC14775	52740	50603
CG17687	DRSC10279	1.06e5	74743
Cyp318a1	DRSC19784	3.71e5	3.28e5
Smug	DRSC15762	74740	85340
CG18268 + CG3014	DRSC15319	71247	70860
CG42342	DRSC13165	1.81e5	1.73e5
CG42342	DRSC14378	27670	26543
CG42342	DRSC15010	1.07e5	84180
CG42342	DRSC15011	1.01e5	77790
CG42342	DRSC15012	92720	51370
raskol	DRSC19202	1.39e5	1.31e5
raskol	DRSC19731	3.36e5	2.99e5
raskol	DRSC19964	3.34e5	3.38e5
raskol	DRSC19967	67000	61360
ppk3	DRSC04275	39603	52193
CG11406	DRSC04010	89567	1.09e5
CG11406	DRSC04108	42733	49287
CG3347	DRSC00597	36773	33213
CG17195	DRSC15188	59320	69170
osy	DRSC14903	68830	67890
osy	DRSC15979	60130	63800
ana2	DRSC05952	66630	61877
Kaz-m1	DRSC16990	59550	72660
CG3036	DRSC00260	2.79e5	2.57e5
CG3036	DRSC00562	1.17e5	83503
CG4424	DRSC15576	56300	49763
CG12723	DRSC19499	4.17e5	3.97e5
CG16904	DRSC15161	48743	33270
CG13124	DRSC02220	85133	74193
Rab9Fb	DRSC19854	3.53e5	4.16e5
Pde1c	DRSC02421	42510	62793
Pde1c	DRSC02422	40117	51273
Pde1c	DRSC02423	29227	54003
Pde1c	DRSC02424	32047	49303
Pde1c	DRSC02425	35243	78840
Pde1c	DRSC02426	36977	74113
Vajk4	DRSC06589	60430	38450
lsn	DRSC16081	75150	84870
CG15439	DRSC00453	1.75e5	1.73e5
CG34025	DRSC08014	1.52e5	1.23e5
Smyd4-3	DRSC07041	61990	68213
TwdlK	DRSC16045	26490	30360
l(2)k05819	DRSC00826	1.16e5	68400
CG31122	DRSC14787	49747	37530
CG31122	DRSC16286	48880	71690
CG31633	DRSC02275	27400	24863
Unc-115a	DRSC12749	68137	49900
Adh + Adhr	DRSC01862	98753	72410
Adh + Adhr	DRSC01863	51360	52387
alpha-Est10	DRSC12613	64920	54367
CG6282	DRSC10616	37783	38910
CG10182	DRSC14202	69670	53330
CG7465	DRSC08592	73040	72070
Spp	DRSC00328	1.16e5	83890
ADD1	DRSC07135	68990	56410
CG14072	DRSC02375	47777	68017
a	DRSC04667	24213	27430
a	DRSC04668	49377	54953
CG4768	DRSC19917	1.77e5	1.87e5
Ip259	DRSC03352	85400	64433
CG13501	DRSC04146	55660	56740
CG31953 (retired record) + gkt	DRSC00709	1.10e5	64250
EbpII	DRSC04637	81173	68407
PDZ-GEF	DRSC03231	27970	27050
CG12084	DRSC08247	94340	56390
moody	DRSC18515	69540	57140
CG12209	DRSC06119	53020	71400
Smyd4-4	DRSC05956	59390	44930
CG17985	DRSC06702	44093	70773
sosie	DRSC14636	53310	56850
CG34126	DRSC02726	16680	18657
ksh	DRSC19554	2.93e5	2.96e5
Rpn7	DRSC16841	35603	34810
Eip93F	DRSC13527	2.20e5	2.58e5
Eip93F	DRSC16661	28150	38180
Liprin-beta	DRSC09795	59043	54080
GMF	DRSC01928	1.16e5	83823
CG31459	DRSC13380	2.20e5	1.77e5
CG3955	DRSC06859	44830	68563
CG34225	DRSC05270	1.07e5	1.05e5
CG13088	DRSC02192	28423	59447
CG11999	DRSC12185	50153	50900
CG13599	DRSC14602	64630	65260
Incenp	DRSC06116	78080	66960
CARPA	DRSC17905	42240	41890
Sgsh	DRSC14771	35110	31940
CG18048	DRSC12573	72600	45323
Cul4	DRSC07243	60437	50667
Trs31	DRSC05975	60827	48303
Rab23	DRSC12305	71913	63930
Pcyt2	DRSC08531	47013	61353
CG10435	DRSC14246	66320	24697
CG6978	DRSC18409	63570	59770
pix	DRSC10533	54987	58067
CAHbeta	DRSC14449	45443	23533
CtsL2	DRSC06978	47553	46640
side-IV	DRSC14833	76480	71350

11 of these entries, set out differently.
{"predicted target": "Eip93F", "dsRNA": "DRSC13527", "raw ATP luminescence, replicate 1": 2.20e5, "raw ATP luminescence, replicate 2": 2.58e5}
{"predicted target": "Eip93F", "dsRNA": "DRSC16661", "raw ATP luminescence, replicate 1": 28150, "raw ATP luminescence, replicate 2": 38180}
{"predicted target": "Liprin-beta", "dsRNA": "DRSC09795", "raw ATP luminescence, replicate 1": 59043, "raw ATP luminescence, replicate 2": 54080}
{"predicted target": "GMF", "dsRNA": "DRSC01928", "raw ATP luminescence, replicate 1": 1.16e5, "raw ATP luminescence, replicate 2": 83823}
{"predicted target": "CG31459", "dsRNA": "DRSC13380", "raw ATP luminescence, replicate 1": 2.20e5, "raw ATP luminescence, replicate 2": 1.77e5}
{"predicted target": "CG3955", "dsRNA": "DRSC06859", "raw ATP luminescence, replicate 1": 44830, "raw ATP luminescence, replicate 2": 68563}
{"predicted target": "CG34225", "dsRNA": "DRSC05270", "raw ATP luminescence, replicate 1": 1.07e5, "raw ATP luminescence, replicate 2": 1.05e5}
{"predicted target": "CG13088", "dsRNA": "DRSC02192", "raw ATP luminescence, replicate 1": 28423, "raw ATP luminescence, replicate 2": 59447}
{"predicted target": "CG11999", "dsRNA": "DRSC12185", "raw ATP luminescence, replicate 1": 50153, "raw ATP luminescence, replicate 2": 50900}
{"predicted target": "CG13599", "dsRNA": "DRSC14602", "raw ATP luminescence, replicate 1": 64630, "raw ATP luminescence, replicate 2": 65260}
{"predicted target": "Incenp", "dsRNA": "DRSC06116", "raw ATP luminescence, replicate 1": 78080, "raw ATP luminescence, replicate 2": 66960}
